Test results from the supplement of paper PMC11732987, “Enantioselective OTUD7B fragment discovery through chemoproteomics screening and high-throughput optimisation” (Communications Chemistry, 2025).
The other results are listed elsewhere or left out. The data scatter; read single values as rough.

Protein sequences, listed by entry. Tags and fused reporters are not part of them. Lines headed by an entry give the natural chain unless they say otherwise; changes in a name come on top. Residues count along the entry.
UniProt Q9BQS8: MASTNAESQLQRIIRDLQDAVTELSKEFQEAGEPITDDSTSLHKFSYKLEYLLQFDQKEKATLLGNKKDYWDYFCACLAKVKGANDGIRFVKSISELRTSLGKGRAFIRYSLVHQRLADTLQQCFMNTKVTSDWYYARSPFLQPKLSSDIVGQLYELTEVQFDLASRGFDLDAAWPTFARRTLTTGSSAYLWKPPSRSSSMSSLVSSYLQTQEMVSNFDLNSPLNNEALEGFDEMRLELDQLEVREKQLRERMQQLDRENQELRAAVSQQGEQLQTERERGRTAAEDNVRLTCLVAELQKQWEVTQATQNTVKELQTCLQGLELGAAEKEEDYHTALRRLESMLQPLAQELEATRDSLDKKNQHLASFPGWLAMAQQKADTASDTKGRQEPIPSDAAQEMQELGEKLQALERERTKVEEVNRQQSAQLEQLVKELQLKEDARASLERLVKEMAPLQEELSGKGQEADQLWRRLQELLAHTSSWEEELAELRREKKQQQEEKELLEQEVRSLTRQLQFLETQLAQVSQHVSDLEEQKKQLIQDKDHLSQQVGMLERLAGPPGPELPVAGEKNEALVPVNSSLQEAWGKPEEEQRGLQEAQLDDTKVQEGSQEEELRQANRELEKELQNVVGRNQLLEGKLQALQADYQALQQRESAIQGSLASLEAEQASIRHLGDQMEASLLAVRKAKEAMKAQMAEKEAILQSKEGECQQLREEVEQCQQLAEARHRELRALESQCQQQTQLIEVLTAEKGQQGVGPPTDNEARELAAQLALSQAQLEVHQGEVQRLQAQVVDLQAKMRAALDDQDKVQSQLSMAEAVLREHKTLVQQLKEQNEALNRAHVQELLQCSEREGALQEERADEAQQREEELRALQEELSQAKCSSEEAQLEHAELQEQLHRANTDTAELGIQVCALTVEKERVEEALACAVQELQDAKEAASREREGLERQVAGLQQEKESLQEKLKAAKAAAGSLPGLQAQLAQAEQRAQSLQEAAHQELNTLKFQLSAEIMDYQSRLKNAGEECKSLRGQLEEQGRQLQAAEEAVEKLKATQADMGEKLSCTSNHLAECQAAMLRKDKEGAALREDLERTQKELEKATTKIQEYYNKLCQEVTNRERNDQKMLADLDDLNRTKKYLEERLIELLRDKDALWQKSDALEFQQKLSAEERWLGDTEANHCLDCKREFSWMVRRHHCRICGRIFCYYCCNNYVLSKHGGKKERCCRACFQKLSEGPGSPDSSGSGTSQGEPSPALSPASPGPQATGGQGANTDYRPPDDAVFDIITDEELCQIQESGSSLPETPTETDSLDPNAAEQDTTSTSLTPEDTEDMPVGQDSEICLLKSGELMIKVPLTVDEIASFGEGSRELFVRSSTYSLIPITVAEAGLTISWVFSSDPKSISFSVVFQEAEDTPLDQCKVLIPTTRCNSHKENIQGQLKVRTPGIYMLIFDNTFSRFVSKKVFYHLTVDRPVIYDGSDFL
UniProt Q6PIW4, 151-170: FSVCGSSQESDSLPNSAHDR
UniProt Q9NSD9: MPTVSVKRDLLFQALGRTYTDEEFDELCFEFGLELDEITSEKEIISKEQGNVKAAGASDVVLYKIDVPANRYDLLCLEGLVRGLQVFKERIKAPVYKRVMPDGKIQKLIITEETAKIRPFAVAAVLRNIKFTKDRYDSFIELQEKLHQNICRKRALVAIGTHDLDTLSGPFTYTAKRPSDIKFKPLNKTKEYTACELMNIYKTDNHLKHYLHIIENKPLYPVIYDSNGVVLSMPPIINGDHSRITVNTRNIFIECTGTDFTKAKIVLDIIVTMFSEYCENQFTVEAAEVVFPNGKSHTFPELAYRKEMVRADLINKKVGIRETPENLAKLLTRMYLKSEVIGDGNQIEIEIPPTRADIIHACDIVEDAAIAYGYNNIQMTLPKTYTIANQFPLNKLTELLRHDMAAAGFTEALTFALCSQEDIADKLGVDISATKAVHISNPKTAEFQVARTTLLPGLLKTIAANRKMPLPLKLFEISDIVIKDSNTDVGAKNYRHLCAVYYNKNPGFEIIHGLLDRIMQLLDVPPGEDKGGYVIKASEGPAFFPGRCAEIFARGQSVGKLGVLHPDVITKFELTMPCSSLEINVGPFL
UniProt Q53R41: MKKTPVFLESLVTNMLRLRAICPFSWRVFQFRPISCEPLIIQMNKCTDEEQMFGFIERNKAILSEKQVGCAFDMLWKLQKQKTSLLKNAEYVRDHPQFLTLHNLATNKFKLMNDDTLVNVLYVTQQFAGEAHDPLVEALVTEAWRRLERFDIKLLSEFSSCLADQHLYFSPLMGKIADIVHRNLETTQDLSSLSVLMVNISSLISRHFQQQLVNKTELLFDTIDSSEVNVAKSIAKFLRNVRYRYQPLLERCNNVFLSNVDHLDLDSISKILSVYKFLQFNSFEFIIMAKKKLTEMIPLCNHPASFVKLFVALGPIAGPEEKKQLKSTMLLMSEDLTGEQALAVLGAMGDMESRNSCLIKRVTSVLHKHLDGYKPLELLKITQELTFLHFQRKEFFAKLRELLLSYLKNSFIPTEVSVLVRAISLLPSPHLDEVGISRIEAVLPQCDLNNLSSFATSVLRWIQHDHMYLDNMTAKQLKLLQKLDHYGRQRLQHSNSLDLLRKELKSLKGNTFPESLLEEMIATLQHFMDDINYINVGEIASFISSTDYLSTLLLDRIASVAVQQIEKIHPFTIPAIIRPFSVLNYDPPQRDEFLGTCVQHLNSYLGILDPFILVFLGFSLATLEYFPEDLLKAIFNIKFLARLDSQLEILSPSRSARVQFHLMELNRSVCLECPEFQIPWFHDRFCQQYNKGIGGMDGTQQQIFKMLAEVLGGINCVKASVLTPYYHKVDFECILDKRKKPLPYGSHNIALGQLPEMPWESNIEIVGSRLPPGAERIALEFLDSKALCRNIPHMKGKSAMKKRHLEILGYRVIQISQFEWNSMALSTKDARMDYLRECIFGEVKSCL
UniProt P0C2W1: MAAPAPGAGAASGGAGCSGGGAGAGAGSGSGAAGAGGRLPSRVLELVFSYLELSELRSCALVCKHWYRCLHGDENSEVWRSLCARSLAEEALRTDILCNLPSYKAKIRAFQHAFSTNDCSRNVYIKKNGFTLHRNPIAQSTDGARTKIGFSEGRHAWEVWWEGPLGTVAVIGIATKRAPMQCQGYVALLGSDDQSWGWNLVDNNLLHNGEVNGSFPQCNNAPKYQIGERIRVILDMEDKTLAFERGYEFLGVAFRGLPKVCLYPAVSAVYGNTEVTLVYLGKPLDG
UniProt Q13480, 365-384: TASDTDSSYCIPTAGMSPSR
UniProt Q96IG2: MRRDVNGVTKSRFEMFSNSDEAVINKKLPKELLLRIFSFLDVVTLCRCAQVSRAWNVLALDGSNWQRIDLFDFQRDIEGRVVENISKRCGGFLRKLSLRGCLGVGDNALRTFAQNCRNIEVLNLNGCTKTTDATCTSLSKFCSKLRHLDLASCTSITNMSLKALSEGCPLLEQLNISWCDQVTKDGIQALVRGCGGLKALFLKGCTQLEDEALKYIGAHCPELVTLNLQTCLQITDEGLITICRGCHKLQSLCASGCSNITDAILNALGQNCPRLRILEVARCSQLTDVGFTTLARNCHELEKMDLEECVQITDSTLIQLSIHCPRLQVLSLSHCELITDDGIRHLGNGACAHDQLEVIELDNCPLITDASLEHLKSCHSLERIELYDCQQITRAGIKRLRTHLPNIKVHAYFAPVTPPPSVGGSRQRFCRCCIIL
UniProt P16591: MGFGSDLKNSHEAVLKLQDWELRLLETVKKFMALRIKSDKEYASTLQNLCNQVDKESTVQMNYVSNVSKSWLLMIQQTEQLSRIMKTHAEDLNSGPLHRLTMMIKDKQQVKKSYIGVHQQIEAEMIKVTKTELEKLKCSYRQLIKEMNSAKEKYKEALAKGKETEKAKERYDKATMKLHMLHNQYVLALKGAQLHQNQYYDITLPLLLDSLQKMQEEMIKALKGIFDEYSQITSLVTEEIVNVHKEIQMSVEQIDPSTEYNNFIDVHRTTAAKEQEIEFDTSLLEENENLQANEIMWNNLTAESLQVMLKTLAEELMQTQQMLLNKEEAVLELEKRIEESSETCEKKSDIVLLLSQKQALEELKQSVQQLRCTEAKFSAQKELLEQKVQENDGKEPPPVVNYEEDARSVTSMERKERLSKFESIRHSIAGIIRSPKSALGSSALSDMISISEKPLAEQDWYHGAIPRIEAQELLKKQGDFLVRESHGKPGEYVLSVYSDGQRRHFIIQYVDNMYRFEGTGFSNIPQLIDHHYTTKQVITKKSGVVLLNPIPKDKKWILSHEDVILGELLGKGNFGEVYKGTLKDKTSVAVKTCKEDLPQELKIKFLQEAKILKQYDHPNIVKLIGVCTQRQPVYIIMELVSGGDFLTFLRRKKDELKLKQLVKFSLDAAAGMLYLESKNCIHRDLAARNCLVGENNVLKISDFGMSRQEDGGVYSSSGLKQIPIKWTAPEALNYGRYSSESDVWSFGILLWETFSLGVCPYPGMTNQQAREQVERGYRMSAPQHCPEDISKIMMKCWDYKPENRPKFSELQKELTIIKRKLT
UniProt O94868: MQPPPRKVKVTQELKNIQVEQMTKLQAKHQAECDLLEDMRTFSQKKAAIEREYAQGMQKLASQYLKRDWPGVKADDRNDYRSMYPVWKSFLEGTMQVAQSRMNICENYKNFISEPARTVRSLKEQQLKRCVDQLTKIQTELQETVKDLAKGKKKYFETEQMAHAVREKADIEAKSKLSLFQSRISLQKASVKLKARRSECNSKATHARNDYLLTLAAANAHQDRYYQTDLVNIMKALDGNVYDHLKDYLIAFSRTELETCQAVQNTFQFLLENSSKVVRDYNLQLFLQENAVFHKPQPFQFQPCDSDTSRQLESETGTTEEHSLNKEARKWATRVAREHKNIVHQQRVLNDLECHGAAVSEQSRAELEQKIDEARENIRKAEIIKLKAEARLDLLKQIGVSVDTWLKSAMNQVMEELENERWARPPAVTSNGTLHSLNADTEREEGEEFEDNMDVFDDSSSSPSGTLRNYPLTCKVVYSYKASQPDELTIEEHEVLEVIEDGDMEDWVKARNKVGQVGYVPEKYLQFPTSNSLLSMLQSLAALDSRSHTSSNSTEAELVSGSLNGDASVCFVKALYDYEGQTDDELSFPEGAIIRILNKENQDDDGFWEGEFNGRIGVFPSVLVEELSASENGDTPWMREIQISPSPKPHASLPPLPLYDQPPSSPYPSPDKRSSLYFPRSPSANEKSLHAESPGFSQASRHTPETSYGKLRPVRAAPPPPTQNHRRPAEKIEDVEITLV
UniProt Q9UQC2: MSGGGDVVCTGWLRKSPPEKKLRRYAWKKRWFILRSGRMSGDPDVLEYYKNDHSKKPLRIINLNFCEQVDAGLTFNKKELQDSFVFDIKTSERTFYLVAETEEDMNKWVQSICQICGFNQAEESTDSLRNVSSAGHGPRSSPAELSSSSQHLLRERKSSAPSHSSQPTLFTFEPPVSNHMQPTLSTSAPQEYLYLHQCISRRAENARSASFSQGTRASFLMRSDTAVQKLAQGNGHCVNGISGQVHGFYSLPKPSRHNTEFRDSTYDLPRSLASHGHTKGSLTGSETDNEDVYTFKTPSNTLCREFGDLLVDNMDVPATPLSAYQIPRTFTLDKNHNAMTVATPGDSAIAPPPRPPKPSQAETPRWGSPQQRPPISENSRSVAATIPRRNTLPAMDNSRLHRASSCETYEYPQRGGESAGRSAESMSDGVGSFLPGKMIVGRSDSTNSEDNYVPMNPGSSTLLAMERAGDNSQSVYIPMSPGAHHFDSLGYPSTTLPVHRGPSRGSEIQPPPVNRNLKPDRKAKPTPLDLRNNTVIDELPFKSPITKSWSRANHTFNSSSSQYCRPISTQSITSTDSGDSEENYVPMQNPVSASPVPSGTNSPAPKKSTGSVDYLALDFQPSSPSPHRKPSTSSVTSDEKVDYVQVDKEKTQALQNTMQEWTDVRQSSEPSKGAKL
UniProt O14772: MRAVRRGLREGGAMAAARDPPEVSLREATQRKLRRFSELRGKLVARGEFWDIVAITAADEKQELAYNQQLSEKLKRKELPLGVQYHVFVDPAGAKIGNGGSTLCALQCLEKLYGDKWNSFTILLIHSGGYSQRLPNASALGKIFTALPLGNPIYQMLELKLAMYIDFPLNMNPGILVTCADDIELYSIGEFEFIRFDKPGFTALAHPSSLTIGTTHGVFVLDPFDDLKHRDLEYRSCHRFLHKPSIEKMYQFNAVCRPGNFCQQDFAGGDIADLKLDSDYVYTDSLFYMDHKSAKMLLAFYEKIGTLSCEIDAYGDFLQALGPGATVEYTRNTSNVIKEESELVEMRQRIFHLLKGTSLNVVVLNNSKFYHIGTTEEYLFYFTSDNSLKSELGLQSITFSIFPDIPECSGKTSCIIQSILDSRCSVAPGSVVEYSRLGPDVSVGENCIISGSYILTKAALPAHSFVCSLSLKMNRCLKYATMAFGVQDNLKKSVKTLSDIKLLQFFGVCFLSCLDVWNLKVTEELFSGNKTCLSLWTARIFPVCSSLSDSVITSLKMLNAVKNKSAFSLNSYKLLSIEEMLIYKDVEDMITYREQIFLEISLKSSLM

Compound: ClCC(=O)N[C@@H]1CCCc2ccccc12
Assay: log2 mean competition ratio of IA-DTB cysteine labelling (DMSO/compound) (log2 ratio); higher = stronger cysteine engagement by compound
Details: 50 µM; treatment time: 4 h; cell line lysate: HEK293T
Experimental: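 IA-DTB competitive cysteine chemoproteomics in HEK293T RIPA lysate. Lysates were treated with compound 29 or 30 at 50 or 200 µM for 4 h, then IA-DTB (500 µM, 1 h), trypsin-digested, NeutrAvidin-enriched and analysed by diaPASEF. Competition ratio = intensity DMSO / intensity compound (n=4 treated, n=64 DMSO); binding: mean log2 CR ≥ 1 and p ≤ 0.05 plus QC filters. Target is the cysteine site.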

| Target | log2 mean competition ratio |
| --- | --- |
| FASN C1759 | 0.00417 |
| FYCO1 C928 (UniProt Q9BQS8) | -0.319 |
| FLAD1 C147 (UniProt Q8NFF5) | 0.241 |
| GAPVD1 C1160 (UniProt Q14C86) | 0.0273 |
| FLAD1 C236 (UniProt Q8NFF5) | 0.107 |
| FAT1 C3023 (UniProt Q14517) | 0.0175 |
| FBXO10 C778 | -0.176 |
| FIGNL1 C154 (UniProt Q6PIW4) | 0.726 |
| GARRE1 C196 | 0.0842 |
| FBXO44;FBXO6 C30;(C37) | -0.0341 |
| FARSB C195 (UniProt Q9NSD9) | -0.000594 |
| FASTKD1 C300 (UniProt Q53R41) | 0.293 |
| FZD3 C165 | -0.281 |
| FBXL18 C63 (UniProt Q96ME1) | -0.144 |
| FYCO1 C1110 (UniProt Q9BQS8) | -0.0667 |
| FASTKD1 C838 (UniProt Q53R41) | -0.0312 |
| FLNA C1402 | 0.224 |
| FARSB C151 (UniProt Q9NSD9) | 0.118 |
| FBXO45 C69 (UniProt P0C2W1) | -0.02 |
| FDXR C105 (UniProt P22570) | 0.113 |
| FBXL15 C139 (UniProt Q9H469) | 0.000276 |
| GAB1 C374 (UniProt Q13480) | -0.123 |
| FBXL20 C127 (UniProt Q96IG2) | 0.273 |
| FTSJ1 C295 (UniProt Q9UET6) | -0.0624 |
| FER C627 (UniProt P16591) | 0.328 |
| FBXL3 C331 | -0.127 |
| FCHSD2 C33 (UniProt O94868) | -0.0921 |
| GAB2 C9 (UniProt Q9UQC2) | 0.16 |
| FPGT C424 (UniProt O14772) | 0.624 |

Single values from the list.
Entry for FPGT C424 (UniProt O14772) under log2 mean competition ratio: 0.624
Entry for FASN C1759 under log2 mean competition ratio: 0.00417
